# Laboratory results: patent US6420384B2, “Proton pump inhibitors” (Ariad Pharmaceuticals, Inc., priority 1999, dated 2002)
# Conditions: TSK-Gel HA 1000 HPLC column; linear gradient 10 mM to 500 mM sodium phosphate, 0.15 N NaCl, pH 6.8; corrected using two reference compounds
# Text: Hydroxyapatite is the principal mineral component of bone. Hydroxyapatite adsorption chromatography is used as an assay to evaluate the bone-targeting potential of both individual bone-targeting moieties (“monomers”) and of pharmaceuticals incorporating bone-targeting groups.
# The rentention time of the compound is expressed in terms of K=(retention time-void time)/void. This K value is corrected using two reference compounds to correct from inter-column and inter-system variation to obtain a K′ value.
smiles,measurement,value
"NCCCC(O)(P(=O)(O)O)P(=O)(O)O [Alendronate, alendronate]",K′ value (corrected retention K = (retention time-void time)/void),3.7
